Test results reported in the supplement of paper PMC6119338.
This is one part of the list. Most values come without repeats; read them as rough.

Tested on: Plasmodium berghei sporozoites
Test: residual sporozoite gliding motility relative to DMSO control; higher = less inhibition of motility
Details: 10 µM; incubation time 30 min

Residual sporozoite gliding motility, > 50%:
CCOC(=O)c1cnc2c(C)cccc2c1Nc1ccc(C(C)=O)cc1
OC(CNC1CCCCC1)Cn1c2ccc(I)cc2c2cc(I)ccc21 (stereo unspecified)
CCOc1ccc2nc(C)cc(Nc3ccc(N(C)C)cc3)c2c1
CC(C)c1ccc(CNCC(O)c2ccccc2)cc1 (stereo unspecified)
Cn1c(=O)c2cc(C(=O)NCCCN3CCCCCC3)sc2c2ccccc21
Nc1ccc(-c2nc3cc(Oc4ccc(Oc5ccc6[nH]c(-c7ccc(N)cc7)nc6c5)cc4)ccc3[nH]2)cc1
COc1ccc(CN2CCCC(C(=O)c3ccc(C(F)(F)F)cc3)C2)c(O)c1 (stereo unspecified)
CCOC(=O)C1=C(c2ccccc2)N=c2sc(=Cc3cc(C)n(-c4ccc(F)cc4)c3C)c(=O)n2C1c1cccc(OC)c1OC (stereo unspecified)
COCCN(C(=O)Cc1cccs1)C(C(=O)NCc1ccc(OC)cc1)c1ccc(C(C)C)cc1 (stereo unspecified)
Cc1cc(NC(=O)C2c3ccccc3C(=O)N(CC(C)C)C2c2cccs2)no1 (stereo unspecified)
CCOc1ccccc1CN1CCc2nc3cc(C(C)(C)C)nn3c(O)c2C1
CC(C)(C)c1ccc(C2CC3=Nc4ccccc4N(C(=O)c4ccccc4Cl)C(c4ccc(F)cc4)C3=C(O)C2)cc1 (stereo unspecified)
CCOc1cc(Br)c(C(C)NC(=O)c2cccc(OC)c2)cc1OCC (stereo unspecified)
COC(=O)c1ccc(Cl)c2c1C1C=CCC1C(c1cccc3ccccc13)N2 (stereo unspecified)
Cc1cccc(-n2ncc3c(O)nc(-n4nc(C)cc4NC(=O)c4cc5ccccc5o4)nc32)c1
Cc1c(C)n(Cc2ccc(F)cc2)c2ccc(C(=O)NCc3ccco3)cc12

Two entries drawn at random from those above, as already listed:
Residual sporozoite gliding motility, > 50%:
CC(C)c1ccc(CNCC(O)c2ccccc2)cc1 (stereo unspecified)
CCOC(=O)c1cnc2c(C)cccc2c1Nc1ccc(C(C)=O)cc1
